Reference: patent publication US9856220B2 (AbbVie Deutschland GmbH & Co. KG, priority 2011, dated 2018)

Assays:
[1] = Determination of the microsomal half-life / microsomal clearance, rat liver microsomes; type: in vitro ADME; details: 0.5 μM test substance, 0.25 mg of microsomal protein/ml, pH 7.4, 37° C.
Method: (§1) b) Determination of the Microsomal Half-Life:
(§2) The metabolic stability of the compounds of the invention was determined in the following assay.
(§3) The test substances were incubated in a concentration of 0.5 μM as follows:
(§4) 0.5 μM test substance are preincubated together with liver microsomes from different species (from rat, human or other species) (0.25 mg of microsomal protein/ml) in 0.05 M potassium phosphate buffer of pH 7.4 in microtiter plates at 37° C. for 5 min. The reaction is started by adding NADPH (1 mg/mL). After 0, 5, 10, 15, 20 and 30 min, 50 μl aliquots are removed, and the reaction is immediately stopped and cooled with the same volume of acetonitrile. The samples are frozen until analyzed. The remaining concentration of undegraded test substance is determined by MSMS. The half-life (T½) is determined from the gradient of the signal of test substance/unit time plot, it being possible to calculate the half-life of the test substance, assuming first order kinetics, from the decrease in the concentration of the compound with time. The microsomal clearance (mCl) is calculated from mCl=ln 2/T½/(content of microsomal protein in mg/ml)×1000 [ml/min/mg]

[2] = Determination of the microsomal half-life / microsomal clearance, human liver microsomes; type: in vitro ADME; details: 0.5 μM test substance, 0.25 mg of microsomal protein/ml, pH 7.4, 37° C.
Method: as §1, §2, §3, §4

Rat mCl [1]: ++ (<100 μl min^−1 mg^−1)
Human mCl [2]: ++ (<100 μl min^−1 mg^−1)
SMILES: CCn1cc(C(=O)N[C@@H](C)c2ccc(F)cc2)c2cc(OC)c(OC)cc2c1=O [Example 165, (S)-2-Ethyl-N-(1-(4-fluorophenyl)ethyl)-6,7-dimethoxy-1-oxo-1,2-dihydroisoquinoline-4-carboxamide]
